Test results: the supplement of paper PMC8728848
This is one part of the list.

Key:
Experiment in all cases: glycan array binding signal (z-score within array); higher = stronger binding
Details in all cases: glycan notation: IUPAC condensed, linker removed
[1] = target: Gal(b1-4)GlcNAc(b1-3)Gal(b1-4)GlcNAc(b1-3)Gal(b1-4)GlcNAc(b1-3)Gal(b1-4)GlcNAc(b1-2)Man(a1-3)[Gal(b1-4)GlcNAc(b1-3)Gal(b1-4)GlcNAc(b1-3)Gal(b1-4)GlcNAc(b1-3)Gal(b1-4)GlcNAc(b1-2)Man(a1-6)]Man(b1-4)GlcNAc(b1-4)GlcNAc
Summary of the method: (§1)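 Glycan array data were curated from 3228 arrays in the Consortium for Functional Glycomics database and kept only where the protein sequence was available. Glycan names were converted to IUPAC-condensed notation, and columns mapping to the same glycan were averaged. The binding signal is a within-array Z-score, averaged across arrays of the same protein sequence at different concentrations or buffers and across linkers. Negative Z-scores can be read as non-binding.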

[2] = target: Gal(b1-4)GlcNAc(b1-3)Gal(b1-4)GlcNAc(b1-3)Gal(b1-4)GlcNAc(b1-3)Gal(b1-4)GlcNAc(b1-2)Man(a1-3)[Gal(b1-4)GlcNAc(b1-3)Gal(b1-4)GlcNAc(b1-3)Gal(b1-4)GlcNAc(b1-3)Gal(b1-4)GlcNAc(b1-2)Man(a1-6)]Man(b1-4)GlcNAc(b1-4)[Fuc(a1-6)]GlcNAc
Summary of the method: as §1

[3] = target: Gal(b1-4)GlcNAc(b1-3)Gal(b1-4)GlcNAc(b1-3)Gal(b1-4)GlcNAc(b1-3)Gal(b1-4)GlcNAc(b1-2)[Gal(b1-4)GlcNAc(b1-3)Gal(b1-4)GlcNAc(b1-3)Gal(b1-4)GlcNAc(b1-3)Gal(b1-4)GlcNAc(b1-6)]Man(a1-6)[Gal(b1-4)GlcNAc(b1-3)Gal(b1-4)GlcNAc(b1-3)Gal(b1-4)GlcNAc(b1-3)Gal(b1-4)GlcNAc(b1-2)Man(a1-3)]Man(b1-4)GlcNAc(b1-4)[Fuc(a1-6)]GlcNAc
Summary of the method: as §1

[4] = target: Gal(b1-4)GlcNAc(b1-3)Gal(b1-4)GlcNAc(b1-3)Gal(b1-4)GlcNAc(b1-3)Gal(b1-4)GlcNAc(b1-3)Gal(b1-4)GlcNAc(b1-2)Man(a1-3)[Gal(b1-4)GlcNAc(b1-3)Gal(b1-4)GlcNAc(b1-3)Gal(b1-4)GlcNAc(b1-3)Gal(b1-4)GlcNAc(b1-3)Gal(b1-4)GlcNAc(b1-2)Man(a1-6)]Man(b1-4)GlcNAc(b1-4)GlcNAc
Summary of the method: as §1

[5] = target: Gal(b1-4)GlcNAc(b1-3)Gal(b1-4)GlcNAc(b1-3)Gal(b1-4)GlcNAc(b1-3)Gal(b1-4)GlcNAc(b1-3)Gal(b1-4)GlcNAc(b1-2)Man(a1-3)[Gal(b1-4)GlcNAc(b1-3)Gal(b1-4)GlcNAc(b1-3)Gal(b1-4)GlcNAc(b1-3)Gal(b1-4)GlcNAc(b1-3)Gal(b1-4)GlcNAc(b1-2)Man(a1-6)]Man(b1-4)GlcNAc(b1-4)[Fuc(a1-6)]GlcNAc
Summary of the method: as §1

[6] = target: Gal(b1-4)GlcNAc(b1-3)Gal(b1-4)GlcNAc(b1-3)Gal(b1-4)GlcNAc(b1-3)Gal(b1-4)GlcNAc(b1-3)Gal(b1-4)GlcNAc(b1-2)[Gal(b1-4)GlcNAc(b1-3)Gal(b1-4)GlcNAc(b1-3)Gal(b1-4)GlcNAc(b1-3)Gal(b1-4)GlcNAc(b1-3)Gal(b1-4)GlcNAc(b1-6)]Man(a1-6)[Gal(b1-4)GlcNAc(b1-3)Gal(b1-4)GlcNAc(b1-3)Gal(b1-4)GlcNAc(b1-3)Gal(b1-4)GlcNAc(b1-3)Gal(b1-4)GlcNAc(b1-2)Man(a1-3)]Man(b1-4)GlcNAc(b1-4)[Fuc(a1-6)]GlcNAc
Summary of the method: as §1

[7] = target: Gal(b1-4)GlcNAc(b1-3)Gal(b1-4)GlcNAc(b1-3)Gal(b1-4)GlcNAc(b1-3)Gal(b1-4)GlcNAc(b1-3)Gal(b1-4)GlcNAc(b1-3)Gal(b1-4)GlcNAc(b1-2)Man(a1-3)[Gal(b1-4)GlcNAc(b1-3)Gal(b1-4)GlcNAc(b1-3)Gal(b1-4)GlcNAc(b1-3)Gal(b1-4)GlcNAc(b1-3)Gal(b1-4)GlcNAc(b1-3)Gal(b1-4)GlcNAc(b1-2)Man(a1-6)]Man(b1-4)GlcNAc(b1-4)GlcNAc
Summary of the method: as §1

[8] = target: Gal(b1-4)GlcNAc(b1-3)Gal(b1-4)GlcNAc(b1-3)GalNAc
Summary of the method: as §1

[9] = target: Gal(b1-4)GlcNAc(b1-3)Gal(b1-4)GlcNAc(b1-3)[Gal(b1-4)GlcNAc(b1-3)Gal(b1-4)GlcNAc(b1-6)]GalNAc
Summary of the method: as §1

[10] = target: Gal(b1-4)GlcNAc(b1-3)Gal(b1-4)GlcNAc(b1-6)[Gal(b1-3)]GalNAc
Summary of the method: as §1

[11] = target: Gal(b1-4)GlcNAc(b1-3)Gal(b1-4)[Fuc(a1-3)]GlcNAc(b1-3)Gal(b1-4)[Fuc(a1-3)]GlcNAc
Summary of the method: as §1

[12] = target: Gal(b1-4)GlcNAc(b1-3)GalNAc
Summary of the method: as §1

[13] = target: Gal(b1-4)GlcNAc(b1-3)[Fuc(a1-3)GlcNAc(b1-6)]Gal(b1-4)Glc
Summary of the method: as §1

[14] = target: Gal(b1-4)GlcNAc(b1-3)[Gal(b1-4)GlcNAc(b1-6)]Gal(b1-4)GlcNAc
Summary of the method: as §1

[15] = target: Gal(b1-4)GlcNAc(b1-3)[GlcNAc(b1-6)]Gal(b1-4)GlcNAc
Summary of the method: as §1

[16] = target: Gal(b1-4)GlcNAc(b1-6)Gal(b1-4)GlcNAc
Summary of the method: as §1

[17] = target: Gal(b1-4)GlcNAc(b1-6)GalNAc
Summary of the method: as §1

[18] = target: Gal(b1-4)GlcNAc(b1-6)[Gal(b1-3)]GalNAc
Summary of the method: as §1

[19] = target: Gal(b1-4)GlcNAc(b1-6)[Gal(b1-4)GlcNAc(b1-3)]GalNAc
Summary of the method: as §1

Gal(b1-4)GlcNAc6P = target: Gal(b1-4)GlcNAc6P
Summary of the method: as §1

Gal(b1-6)Gal = target: Gal(b1-6)Gal
Summary of the method: as §1

Gal3S(b1-3)GalNAc = target: Gal3S(b1-3)GalNAc
Summary of the method: as §1

Gal3S(b1-3)GlcNAc = target: Gal3S(b1-3)GlcNAc
Summary of the method: as §1

B1: Drgal1 (Danio rerio) (protein)
chain: MAGVLIQNMSFKVGQTLTITGVPKPDSTNFAINIGHSPEDIALHMNPRFDAHGDQCTIVCNSFQSGSWCEEHRDDNFPFIQDKEFQIKITFTNEEFLVTLPDGSEIHFPNRQGSEKYKYMYFEGEVRIQGVEIK
B1 was tested, and the “glycan array binding signal (z-score)” value [1] was 1.46, the “glycan array binding signal (z-score)” value [2] was 1.5 and the “glycan array binding signal (z-score)” value [3] was 2.07. For the same binder, the “glycan array binding signal (z-score)” value [4] was 7.35, the “glycan array binding signal (z-score)” value [5] was 1.72 and the “glycan array binding signal (z-score)” value [6] was 2.15. The “glycan array binding signal (z-score)” value [7] was 1.42, the “glycan array binding signal (z-score)” value [8] was 0.766 and the “glycan array binding signal (z-score)” value [9] was 0.887. The “glycan array binding signal (z-score)” value [10] was 0.322, the “glycan array binding signal (z-score)” value [11] was 1.1 and the “glycan array binding signal (z-score)” value [12] was -0.56. The “glycan array binding signal (z-score)” value [13] was 0.64, the “glycan array binding signal (z-score)” value [14] was 0.112 and the “glycan array binding signal (z-score)” value [15] was 0.038. The “glycan array binding signal (z-score)” value [16] was 0.065, the “glycan array binding signal (z-score)” value [17] was -0.125 and the “glycan array binding signal (z-score)” value [18] was 0.099. For the same binder, the “glycan array binding signal (z-score)” value [19] was 0.497, the “glycan array binding signal (z-score)” value (Gal(b1-4)GlcNAc6P) was -0.128 and the “glycan array binding signal (z-score)” value (Gal(b1-6)Gal) was -1.04. For the same binder, the “glycan array binding signal (z-score)” value (Gal3S(b1-3)GalNAc) was -0.521 and the “glycan array binding signal (z-score)” value (Gal3S(b1-3)GlcNAc) was 0.034.
